Reference: PubChem BioAssay AID504834 (National Center for Advancing Translational Sciences (NCATS), 2011)
The campaign covered roughly 320,000 compounds. About 22,000 (6.9%) were called active. The inconclusive results got no clear call from the source; some entries with a clear call stand among them for comparison. Calls follow the shape of the dose curve; as a rule, active = well fitted inhibition curve with a large enough effect; inconclusive = small, poorly fitted or top-dose-only effect, or another doubt; inactive = no such curve, though single readings can be large or run the other way. Where the call is inconclusive, the potency comes from a doubtful curve fit.

Assay: Primary qHTS for delayed death inhibitors of the malarial parasite plastid, 96 hour incubation
Settings: P. falciparum luciferase reporter growth; series mostly up to 28.7 µM; activity change, negative = inhibition: at the top concentration
Summary of the method: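 Infected RBCs, 2% Hct / 0.05% parasitemia final; luciferase-reporter P. falciparum; cpd 96 h, 37 C, 5% CO2; luciferase detection reagent; luminescence.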
% is scaled to controls: 0 for no effect and ±100 for the full control effect; potency is read from the fitted curve at half-maximal effect.

Row | SMILES | Potency | activity change, negative = inhibition
1 | O=C(CSc1ccc2nnc(CCNC(=O)c3ccccc3)n2n1)Nc1ccc(F)cc1F | inconclusive: 18.5 µM [inhibitor, single point] | –
2 | CC1CC(C)CN(C(=O)c2ccc(S(=O)(=O)N3CCCCC3)cc2)C1 (stereo not drawn) | inconclusive: 13.1 µM [inhibitor, single point] | –
3 | CCCCOP(=O)(c1ccc(N(C)C)cc1)C(O)c1cccnc1 (stereo not drawn) | – | inactive: 37.3%
4 | COc1ccc(/C=C2\Sc3ccc(C(=O)N4CCN(Cc5ccccc5)CC4)cc3N(C)C2=O)cc1OC | inconclusive: 1.04 µM [inhibitor, full curve, poor fit] | –
5 | O=[N+]([O-])c1cc(S(=O)(=O)N2CCCC2)ccc1N/N=C/c1ccccn1 | inconclusive: 0.329 µM [inhibitor, full curve, poor fit] | –
6 | Cc1nc(N2CCN(S(=O)(=O)c3ccc(F)cc3)CC2)c2c(-c3cccs3)csc2n1 | inconclusive: 11.7 µM [inhibitor, single point] | –
7 | CSc1ncccc1C(=O)N1CCN(S(=O)(=O)c2ccc3ccccc3c2)CC1 | inconclusive: 14.7 µM [inhibitor, single point] | –
8 | O=C(O)c1ccc2c(c1)C(=O)N(c1cccc3ccccc13)C2=O | – | inactive: 85.6%
9 | O=C(CCCCCn1c(=S)[nH]c2ccc(N3CCOCC3)cc2c1=O)NC1CCN(Cc2ccccc2)CC1 | – | inactive: 9.96%
10 | Cc1nn(-c2ccc(F)cc2)c(C)c1CN1CCN(CCC(C)C)C(CCO)C1 (stereo not drawn) | inconclusive: 2.62 µM [inhibitor, full curve, poor fit] | –
11 | O=C(CC1SC(=Nc2ccccc2)N(CCc2ccccn2)C1=O)Nc1ccc(F)cc1 (stereo not drawn) | active: 4.65 µM | –
12 | NS(=O)(=O)c1ccc(CCNC(=O)CN2CCCCC2)cc1 | inconclusive: 0.0738 µM [inhibitor, full curve, poor fit] | –
13 | COc1ccc(Cl)cc1NC(=O)COC(=O)/C=C/c1c(C)nn(C2CCS(=O)(=O)C2)c1Cl (stereo not drawn) | inconclusive: 2.33 µM [inhibitor, full curve, poor fit] | –
14 | NC(=O)c1ccc(NC(=O)C2CCCC2)cc1 | – | inactive: 0%
15 | Brc1ccc(-c2nn3c(-c4ccccn4)nnc3s2)o1 | inconclusive: 14.7 µM [inhibitor, partial curve, poor fit] | –
16 | Cc1ccc(NS(=O)(=O)c2ccc3c(c2)NC(=O)CCS3)c(Cl)c1 | inconclusive: 18.5 µM [inhibitor, single point] | –
17 | C=CCNC(=S)N1CCC(C(=O)c2ccc(Cl)cc2)CC1 | active: 9.28 µM | –
18 | COc1ccc(CSc2ncnc3sccc23)cc1F | – | inactive: 4.57%
19 | C=C1[C@@H](OC(C)=O)CC[C@]2(C)[C@@H]1C[C@@H]1C[C@H](OC(C)=O)C(C)=C([C@@H](OC(C)=O)[C@@H]2OC(C)=O)C1(C)C | active: 7.38 µM | –
20 | Cc1ccc(NC(=O)C(C)S)cc1 (stereo not drawn) | inconclusive: 18.5 µM [inhibitor, single point] | –
21 | C/C(=N\Nc1ccccc1)c1c(O)cc(C)oc1=O | – | inactive: 13.3%
22 | O=C(N/N=C/c1cc(Cl)c(O)c(Cl)c1)c1cc2c(ccc3ccccc32)o1 | inconclusive: 18.5 µM [inhibitor, single point] | –

Ordered by molecular weight (smallest number first): 3 of the compounds above
Row | SMILES | Potency | activity change, negative = inhibition
12 | NS(=O)(=O)c1ccc(CCNC(=O)CN2CCCCC2)cc1 | inconclusive: 0.0738 µM [inhibitor, full curve, poor fit] | –
2 | CC1CC(C)CN(C(=O)c2ccc(S(=O)(=O)N3CCCCC3)cc2)C1 (stereo not drawn) | inconclusive: 13.1 µM [inhibitor, single point] | –
9 | O=C(CCCCCn1c(=S)[nH]c2ccc(N3CCOCC3)cc2c1=O)NC1CCN(Cc2ccccc2)CC1 | – | inactive: 9.96%

Next part

Row | SMILES | Potency | activity change, negative = inhibition
23 | COc1cccc(-c2cc(C(=O)N3CCN(S(=O)(=O)c4ccccc4)CC3)[nH]n2)c1 | inconclusive: 0.294 µM [inhibitor, partial curve] | –
24 | ClCc1nc2ccccc2c2ccccc12 | inconclusive: 9.28 µM [inhibitor, single point] | –
25 | COc1ccc([C@]23Cc4ccccc4C(O2)C2=C(CC(C)(C)CC2=O)O3)cc1 | active: 0.601 µM | –
26 | COc1ccc(OC)c(C2CC(=O)C3=C(C2)NC(=O)CC3c2ccc(O)c(OC)c2)c1 (stereo not drawn) | inconclusive: 11.7 µM [inhibitor, single point] | –
27 | CC(C)n1cc(/C=N/NC(=O)COc2cccc3cccnc23)c2ccccc21 | active: 8.28 µM | –
28 | CCOCCOC(=O)Cn1cnc2scc(-c3ccc(C)cc3)c2c1=O | inconclusive: 16.5 µM [inhibitor, single point] | –
29 | CCOc1ccc(N(CC(=O)NC2CCC(C)CC2)S(=O)(=O)c2c(C)noc2C)cc1 (stereo not drawn) | inconclusive: 13.1 µM [inhibitor, partial curve] | –
30 | COc1ccc(NC(=O)CSc2ccc(-c3cccs3)nn2)c(OC)c1 | inconclusive: 10.4 µM [inhibitor, partial curve] | –
31 | CCc1c(C)nc(N2CCN(c3ccc(Cl)cc3)CC2)[nH]c1=O | – | inactive: 0%
32 | O=C(CNC(=O)C12CC3CC(CC(C3)C1)C2)N1CCN(S(=O)(=O)c2cccs2)CC1 | inconclusive: 1.85 µM [inhibitor, partial curve, poor fit] | –
33 | COc1ccc(N=c2oc3ccccc3cc2C(=O)Nc2ccccn2)cc1OC | inconclusive: 10.4 µM [inhibitor, single point] | –
34 | Cc1nn(-c2ccccc2)c(C)c1C(=O)OCC(=O)NC12CC3CC(CC(C3)C1)C2 | active: 10.4 µM | –
35 | CCOC(=O)c1c(NC(=O)Cn2c(=O)oc3ccccc32)oc(C)c1C(C)=O | inconclusive: 11.7 µM [inhibitor, single point] | –
36 | CC1=C/C(=N\NC(=S)NCCc2ccccc2)CC(C)(C)C1 | – | inactive: -31.4% [at 5.75 µM]
37 | CCN(CC)S(=O)(=O)c1cccc(NC(=O)c2cc(-c3cccs3)nn2-c2ccccc2)c1 | active: 11.7 µM | –
38 | CC(=O)c1cc(CN2CCN(C3CCN(C(C)C)CC3)C(CCO)C2)cs1 (stereo not drawn) | inconclusive: 13.1 µM [inhibitor, single point] | –
39 | CCC1(C)Cc2ccccc2-c2[nH][nH]c(=O)c21 (stereo not drawn) | inconclusive: 11.7 µM [inhibitor, single point] | –
40 | O=C(CSC(=S)N1CCOCC1)Nc1ncc2c(n1)CC(c1ccco1)CC2=O (stereo not drawn) | – | inactive: 11.5%
41 | COc1ccc(OC)c(CCNC(=O)c2ccc3c(c2)N(Cc2ccccc2)CCS3)c1 | active: 13.1 µM | –
42 | Cc1ccc(NC(=O)c2cccc(C(=O)OC(C)C)n2)c(Br)c1 | inconclusive: 18.5 µM [inhibitor, single point] | –
43 | COc1cc(C(C)=O)ccc1OCC(=O)Nc1ccccc1N1CCCCC1 | inconclusive: 6.57 µM [inhibitor, partial curve] | –
